This passage reports binding results from US20080233109A1.

Amino acid sequences for entries named in this document (tags omitted). A change or cut given only in a name is not applied to a line headed by its entry.
UniProt Q9WUU9: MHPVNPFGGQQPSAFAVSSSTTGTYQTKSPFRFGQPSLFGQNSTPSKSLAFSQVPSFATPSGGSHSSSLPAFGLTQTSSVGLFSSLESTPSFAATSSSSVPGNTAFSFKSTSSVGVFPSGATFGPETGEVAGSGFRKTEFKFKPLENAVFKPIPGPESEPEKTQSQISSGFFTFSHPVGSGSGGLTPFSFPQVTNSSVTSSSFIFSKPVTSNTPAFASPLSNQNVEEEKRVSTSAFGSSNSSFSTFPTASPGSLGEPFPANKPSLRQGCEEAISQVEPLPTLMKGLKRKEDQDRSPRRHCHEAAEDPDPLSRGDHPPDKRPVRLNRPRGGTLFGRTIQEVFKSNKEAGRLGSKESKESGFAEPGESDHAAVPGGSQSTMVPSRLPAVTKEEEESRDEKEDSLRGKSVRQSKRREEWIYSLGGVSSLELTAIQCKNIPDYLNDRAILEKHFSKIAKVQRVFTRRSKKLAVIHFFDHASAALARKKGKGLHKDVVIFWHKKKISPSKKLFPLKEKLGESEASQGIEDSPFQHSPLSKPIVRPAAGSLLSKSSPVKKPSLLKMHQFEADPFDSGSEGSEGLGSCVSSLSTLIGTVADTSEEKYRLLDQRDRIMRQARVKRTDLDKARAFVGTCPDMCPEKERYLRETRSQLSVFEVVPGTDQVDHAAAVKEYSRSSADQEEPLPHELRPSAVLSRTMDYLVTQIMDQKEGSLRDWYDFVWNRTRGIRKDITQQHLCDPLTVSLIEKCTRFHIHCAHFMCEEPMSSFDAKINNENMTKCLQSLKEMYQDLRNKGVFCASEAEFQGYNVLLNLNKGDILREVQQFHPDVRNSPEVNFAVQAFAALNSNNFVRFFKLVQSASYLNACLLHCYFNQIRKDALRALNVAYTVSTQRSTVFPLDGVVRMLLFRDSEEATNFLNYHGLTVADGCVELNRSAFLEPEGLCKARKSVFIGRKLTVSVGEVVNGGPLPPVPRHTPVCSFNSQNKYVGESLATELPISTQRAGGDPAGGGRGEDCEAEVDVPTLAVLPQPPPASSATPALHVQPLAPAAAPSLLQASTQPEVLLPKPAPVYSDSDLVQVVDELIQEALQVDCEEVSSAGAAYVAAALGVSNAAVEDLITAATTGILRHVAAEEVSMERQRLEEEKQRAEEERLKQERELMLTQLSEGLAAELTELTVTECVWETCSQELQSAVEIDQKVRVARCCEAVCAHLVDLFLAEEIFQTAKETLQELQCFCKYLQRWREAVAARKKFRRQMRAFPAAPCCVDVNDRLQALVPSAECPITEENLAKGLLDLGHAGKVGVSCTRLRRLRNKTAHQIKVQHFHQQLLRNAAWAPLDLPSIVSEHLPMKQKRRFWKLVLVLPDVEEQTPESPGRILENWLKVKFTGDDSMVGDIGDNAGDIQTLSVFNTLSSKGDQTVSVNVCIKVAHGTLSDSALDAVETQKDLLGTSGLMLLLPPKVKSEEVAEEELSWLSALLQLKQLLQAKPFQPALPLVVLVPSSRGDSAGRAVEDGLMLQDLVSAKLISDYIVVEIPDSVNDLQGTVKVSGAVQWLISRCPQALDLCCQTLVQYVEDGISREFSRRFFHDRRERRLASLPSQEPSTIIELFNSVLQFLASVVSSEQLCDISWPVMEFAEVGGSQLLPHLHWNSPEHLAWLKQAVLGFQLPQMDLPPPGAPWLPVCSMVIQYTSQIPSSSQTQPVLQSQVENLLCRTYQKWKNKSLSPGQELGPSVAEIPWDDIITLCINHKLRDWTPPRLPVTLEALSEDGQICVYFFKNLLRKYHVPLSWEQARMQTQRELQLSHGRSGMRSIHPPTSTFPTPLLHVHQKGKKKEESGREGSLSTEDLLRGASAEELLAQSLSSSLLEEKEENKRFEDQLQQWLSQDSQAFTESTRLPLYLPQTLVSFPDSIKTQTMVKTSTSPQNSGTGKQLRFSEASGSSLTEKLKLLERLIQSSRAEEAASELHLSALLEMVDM

For experiment [1], the target named is MCM3-HA (HA epitope-tagged MCM3) (UniProt P25206). Nature of the experiment: co-immunoprecipitation with anti-HA, anti-FLAG blot, COS7 cells.
Experiment [2] deals with T1, MCM3 from BAL17 cell lysate (mouse) (UniProt P25206).
T1 sequence (looked up): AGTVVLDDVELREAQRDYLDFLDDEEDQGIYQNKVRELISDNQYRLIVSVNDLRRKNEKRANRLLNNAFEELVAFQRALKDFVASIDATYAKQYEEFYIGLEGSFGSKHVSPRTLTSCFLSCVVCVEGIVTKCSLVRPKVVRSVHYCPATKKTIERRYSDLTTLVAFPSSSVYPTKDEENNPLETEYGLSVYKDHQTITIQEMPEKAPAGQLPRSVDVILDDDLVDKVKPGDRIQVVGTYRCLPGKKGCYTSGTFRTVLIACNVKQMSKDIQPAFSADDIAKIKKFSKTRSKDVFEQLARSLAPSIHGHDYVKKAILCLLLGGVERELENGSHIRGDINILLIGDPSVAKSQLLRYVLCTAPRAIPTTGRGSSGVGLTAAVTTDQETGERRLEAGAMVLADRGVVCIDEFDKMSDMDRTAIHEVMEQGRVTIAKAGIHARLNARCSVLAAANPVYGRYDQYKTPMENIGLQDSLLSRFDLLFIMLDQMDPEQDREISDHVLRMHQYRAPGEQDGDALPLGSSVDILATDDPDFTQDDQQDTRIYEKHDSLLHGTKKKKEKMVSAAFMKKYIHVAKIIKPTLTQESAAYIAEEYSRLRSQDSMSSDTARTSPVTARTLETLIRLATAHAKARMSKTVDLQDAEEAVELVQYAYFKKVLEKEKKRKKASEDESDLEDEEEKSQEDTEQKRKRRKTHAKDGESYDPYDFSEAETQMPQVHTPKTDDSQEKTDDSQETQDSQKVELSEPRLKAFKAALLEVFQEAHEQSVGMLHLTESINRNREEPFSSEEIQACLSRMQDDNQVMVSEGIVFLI
Nature of the experiment: GST pull-down from BAL17 lysate, anti-MCM3 blot.

Experiment [3] concerns the target T2, [^35S]-labeled MCM3 synthesized in vitro (UniProt P25206).
T2 sequence (radio-labeled with ^35S-methionine, looked up): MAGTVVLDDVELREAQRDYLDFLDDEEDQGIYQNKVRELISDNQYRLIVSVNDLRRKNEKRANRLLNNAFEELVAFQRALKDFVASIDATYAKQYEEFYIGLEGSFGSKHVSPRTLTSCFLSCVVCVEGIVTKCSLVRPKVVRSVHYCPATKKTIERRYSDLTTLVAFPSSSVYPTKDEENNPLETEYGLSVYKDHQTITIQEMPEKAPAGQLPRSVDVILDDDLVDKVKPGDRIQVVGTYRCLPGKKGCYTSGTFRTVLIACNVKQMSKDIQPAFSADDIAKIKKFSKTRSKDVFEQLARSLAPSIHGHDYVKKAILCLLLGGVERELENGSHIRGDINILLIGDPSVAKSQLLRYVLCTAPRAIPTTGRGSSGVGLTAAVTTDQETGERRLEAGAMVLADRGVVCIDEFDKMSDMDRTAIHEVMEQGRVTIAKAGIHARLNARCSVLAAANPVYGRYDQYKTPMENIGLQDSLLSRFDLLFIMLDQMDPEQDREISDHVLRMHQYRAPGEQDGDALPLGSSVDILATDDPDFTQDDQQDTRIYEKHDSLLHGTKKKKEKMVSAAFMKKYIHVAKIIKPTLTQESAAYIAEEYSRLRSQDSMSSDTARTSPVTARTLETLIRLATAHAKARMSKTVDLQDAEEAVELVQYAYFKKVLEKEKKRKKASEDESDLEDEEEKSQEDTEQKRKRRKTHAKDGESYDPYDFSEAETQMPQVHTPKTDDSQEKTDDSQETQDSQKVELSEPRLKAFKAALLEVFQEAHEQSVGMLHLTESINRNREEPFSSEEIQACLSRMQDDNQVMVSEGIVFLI
Nature of the experiment: GST pull-down of in vitro translated MCM3, autoradiography.

Results are given in words; binding and its absence hold for the method and conditions named. In cells and extracts the contact can be indirect. Some binding calls cover weakened binding; strength is not graded here.

As to FLAG-Ganp (from UniProt Q9WUU9 1-1971), in experiment [1], the binding entry was “binds”.

Take “FLAG-Gmap80 (from UniProt Q9WUU9 1251-1971)”: the binding result in experiment [1] is “binds”.

In the case of GST-GANP2 (from UniProt Q9WUU9 382-731), the binding entry in experiment [2] and in experiment [3] was “binds” each time. On to “GST-GANP5-7′ (from UniProt Q9WUU9 1251-1971)”, for which the binding result in experiment [2] and in experiment [3] was “binds” each time.
